In article PMC8283784 one finds binding data, which are given here for two substances.

By UniProt entry, the sequences of proteins in these tests, tags left out. Where a name states a change or a piece, a line headed by the entry shows the natural chain unless it says otherwise. Chains listed by the source or under a name are the forms on record and can include a tag or linker.
UniProt P03165: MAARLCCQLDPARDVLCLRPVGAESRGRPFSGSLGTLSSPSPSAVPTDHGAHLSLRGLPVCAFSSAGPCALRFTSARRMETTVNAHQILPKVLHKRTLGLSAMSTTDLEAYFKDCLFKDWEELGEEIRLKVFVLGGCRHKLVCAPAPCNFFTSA
UniProt Q16531: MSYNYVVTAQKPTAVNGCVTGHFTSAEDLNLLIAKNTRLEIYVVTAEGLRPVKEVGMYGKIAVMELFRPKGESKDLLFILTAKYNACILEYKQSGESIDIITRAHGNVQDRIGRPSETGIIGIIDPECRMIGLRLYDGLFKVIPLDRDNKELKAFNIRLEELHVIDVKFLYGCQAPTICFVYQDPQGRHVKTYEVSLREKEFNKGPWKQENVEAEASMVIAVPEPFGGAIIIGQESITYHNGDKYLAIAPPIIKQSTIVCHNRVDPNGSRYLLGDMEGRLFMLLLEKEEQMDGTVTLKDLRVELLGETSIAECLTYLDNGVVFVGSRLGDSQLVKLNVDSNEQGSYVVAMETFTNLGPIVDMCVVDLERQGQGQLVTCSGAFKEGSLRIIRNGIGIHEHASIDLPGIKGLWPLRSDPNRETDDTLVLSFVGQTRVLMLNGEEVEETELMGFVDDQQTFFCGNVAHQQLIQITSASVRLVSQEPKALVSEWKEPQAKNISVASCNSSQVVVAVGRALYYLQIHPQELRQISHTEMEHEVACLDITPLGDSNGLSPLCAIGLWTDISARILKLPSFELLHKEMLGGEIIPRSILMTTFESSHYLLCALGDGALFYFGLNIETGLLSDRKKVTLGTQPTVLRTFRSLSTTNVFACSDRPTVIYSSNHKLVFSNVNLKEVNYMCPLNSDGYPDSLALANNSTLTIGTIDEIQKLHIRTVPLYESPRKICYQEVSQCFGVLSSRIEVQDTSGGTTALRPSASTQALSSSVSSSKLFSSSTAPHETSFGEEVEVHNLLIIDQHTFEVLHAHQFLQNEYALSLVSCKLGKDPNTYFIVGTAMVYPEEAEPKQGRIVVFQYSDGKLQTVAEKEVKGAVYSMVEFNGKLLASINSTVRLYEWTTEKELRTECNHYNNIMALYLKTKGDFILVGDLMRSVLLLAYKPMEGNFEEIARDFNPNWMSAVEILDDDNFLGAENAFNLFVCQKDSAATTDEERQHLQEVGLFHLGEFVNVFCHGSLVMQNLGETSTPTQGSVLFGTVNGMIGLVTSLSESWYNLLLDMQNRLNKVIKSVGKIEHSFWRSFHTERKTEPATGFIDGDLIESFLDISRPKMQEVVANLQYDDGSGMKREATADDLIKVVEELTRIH
TRIM5γ (Q9C035-3, form named): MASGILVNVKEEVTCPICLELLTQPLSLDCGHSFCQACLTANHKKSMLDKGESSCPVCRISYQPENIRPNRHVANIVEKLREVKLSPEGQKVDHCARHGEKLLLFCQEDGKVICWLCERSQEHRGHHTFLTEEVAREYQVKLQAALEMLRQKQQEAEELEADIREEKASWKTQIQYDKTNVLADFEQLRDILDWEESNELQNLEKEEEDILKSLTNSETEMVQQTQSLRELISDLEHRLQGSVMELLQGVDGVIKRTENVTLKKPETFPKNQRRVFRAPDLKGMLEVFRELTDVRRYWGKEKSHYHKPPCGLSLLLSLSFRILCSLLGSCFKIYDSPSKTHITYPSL

Assay [1] concerns the target HBx protein (hepatitis B virus) (UniProt P03165). In words: co-IP; whole cell lysate (2 mg) of PHH cells 4 days after HBV infection; anti-HBx (GS968942), anti-DDB1 or IgG on Dynabeads protein G, overnight at 4°C, 5 washes, immunoblot. In general terms: In western blotting, separated proteins are transferred to a membrane and probed.
Assay [2] addresses DDB1 (human (endogenous in PHH)) (UniProt Q16531). Described as above.

Results are given in words; binding and its absence hold for the method and conditions named. In cells and extracts the contact can be indirect. Some entries that bind do so weakly or less than the wild type.

With DDB1 (from UniProt Q16531 1-1140), the binding result in assay [1] is “binds”. As for TRIM5γ (from UniProt Q9C035-3 1-347), the binding entry in assay [2] and in assay [1] was “binds” throughout.
